Counter-ions that a name gives are not always drawn. Some of the results follow. This data set is noisy: repeats of one test often differ as much as different tests do.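 A first-round screen of about ten thousand compounds sought those raising reporter output, using human embryonic kidney cells briefly transfected with a plasmid carrying a Renilla luciferase gene driven by the HSV-TK promoter.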
system: HEK 293FT; assay: log relative Renilla luciferase luminescence (reporter expression vs reference, reference not stated) (log (base not stated)); higher = higher recombinant reporter expression; conditions: 10 µM; time after transfection 48 h

| SMILES | log |
| --- | --- |
| CCC1(c2ccccc2)C(=O)NCNC1=O [Primidone] | 0.0467 |
| CCCCCCCCCCC[C@@H](C[C@@H]1OC(=O)[C@H]1CCCCCC)OC(=O)[C@H](CC(C)C)NC=O [Orlistat] | -0.0949 |
| CN(C(=O)c1c(O)c2ccccc2n(C)c1=O)c1ccccc1 [Linomide] | -0.126 |
| COC(=O)C1=C(C)NC(C)=C(C(=O)NCCCN2CCC(c3ccccc3)(c3ccccc3)CC2)C1c1ccc([N+](=O)[O-])cc1 (stereo unspecified) | 0.0159 |
| CN(CCOc1ccc(C[C@H](Nc2ccccc2C(=O)c2ccccc2)C(=O)O)cc1)c1ccccn1 | 0.181 |
| CN(C)CCCN1c2ccccc2CCc2ccc(Cl)cc21 [Clomipramine hydrochloride] | -0.0323 |
| O=c1[nH]nc(Sc2ncc([N+](=O)[O-])s2)n1-c1ccc2c(c1)OCCO2 | 0.0252 |
| C[C@H](NC(=O)c1sccc1OCc1ccc(Cl)cc1)c1ccccc1 | -0.0256 |
| N[C@@H](C(=O)O)c1ccc(O)c(C(=O)O)c1 [(R)-3-Carboxy-4-hydroxyphenylglycine] | 0.033 |
| CC(C)NCC(O)COc1ccccc1-n1cccc1 (stereo unspecified) [Isamoltane hemifumarate] | 0.0656 |
| CCN(Cc1ccncc1)C(=O)C(CO)c1ccccc1 (stereo unspecified) [Tropicamide] | -0.0734 |
| CCCNC(=O)N1N=C(c2ccc(N)cc2)c2cc3c(cc2C1C)OCO3 (stereo unspecified) | 0.0792 |
| C[C@H](NC(=O)/C(C#N)=C/c1ccc(O)c(O)c1)c1ccccc1 [Tyrphostin B44, (+) enantiomer] | 0.121 |
| Cc1c(NC(=O)N2CCOCC2)ccc2c1c1ccccc1n2C(C)C | -0.00216 |
| O=C(O)Cc1ccc(OCCNC[C@H](O)c2ccccc2)cc1 [ZD 2079 hydrochloride] | 0.0628 |
| Nc1nc2ccc(OC(F)(F)F)cc2s1 [Riluzole hydrochloride] | 0.00638 |
| Brc1c(NC2=NCCN2)ccc2nccnc12 [UK 14,304 tartrate] | -0.0171 |
| CC(C)(C)NC[C@H](O)COc1nsnc1N1CCOCC1 [(S)-Timolol maleate] | -0.00216 |
| CCOC(=O)C1=C(N)Oc2ccc(Br)cc2C1C(C#N)C(=O)OCC (stereo unspecified) | -0.0404 |
| Cn1cccc1/C=C1\C(=O)NC(=O)c2ccccc21 | -0.0776 |
| C=CC(=O)c1ccc2ccccc2c1 | -0.0131 |
| Cc1cc(F)c(Nc2ncnc3cc(OCc4ccccc4)ccc23)cc1O | -0.0328 |
| COc1cc(N)c(Cl)cc1C(=O)CCC1CCN(CCNS(C)(=O)=O)CC1 | 0.0525 |
| NCCCCCc1c[nH]cn1 [Impentamine dihydrobromide] | 0.205 |
| CC(C1=C(CCN(C)C)Cc2ccccc21)c1ccccn1 (stereo in doubt) [(S)-(+)-Dimethindene maleate] | -0.0585 |
| CC(C)(Oc1ccc(Cl)cc1)C(=O)O [Clofibric acid] | 0.024 |

Reprinted at random: 2 records from the list

| SMILES | log |
| --- | --- |
| CCC1(c2ccccc2)C(=O)NCNC1=O [Primidone] | 0.0467 |
| CC(C)(Oc1ccc(Cl)cc1)C(=O)O [Clofibric acid] | 0.024 |

Source: the supplement of paper PMC7024190
